Experiment in all cases: affinity purification with mass spectrometry; immunoprecipitates of USP18-Flag or TRIM29-Myc from transfected SUNE1 cells, SDS-PAGE, silver staining, mass spectrometry
The target in test [1] is T1, TRIM29-Myc (human) (UniProt Q14134).
T1 sequence: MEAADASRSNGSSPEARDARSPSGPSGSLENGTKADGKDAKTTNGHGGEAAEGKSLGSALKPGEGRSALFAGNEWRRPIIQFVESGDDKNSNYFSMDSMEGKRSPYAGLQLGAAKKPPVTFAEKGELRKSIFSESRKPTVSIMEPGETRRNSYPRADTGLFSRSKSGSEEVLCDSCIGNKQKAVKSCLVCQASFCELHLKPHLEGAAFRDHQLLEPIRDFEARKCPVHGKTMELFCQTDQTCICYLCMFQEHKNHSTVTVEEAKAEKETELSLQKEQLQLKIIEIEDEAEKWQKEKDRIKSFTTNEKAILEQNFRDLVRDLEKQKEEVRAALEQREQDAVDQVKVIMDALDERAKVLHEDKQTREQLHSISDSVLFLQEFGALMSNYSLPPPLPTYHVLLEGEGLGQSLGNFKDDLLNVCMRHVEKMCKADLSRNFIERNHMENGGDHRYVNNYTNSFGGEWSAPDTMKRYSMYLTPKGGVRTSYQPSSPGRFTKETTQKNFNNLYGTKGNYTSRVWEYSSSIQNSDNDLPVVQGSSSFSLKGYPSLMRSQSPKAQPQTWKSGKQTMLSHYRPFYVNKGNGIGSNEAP

By UniProt entry, the sequences of proteins in these tests, tags left out.
UniProt P19474: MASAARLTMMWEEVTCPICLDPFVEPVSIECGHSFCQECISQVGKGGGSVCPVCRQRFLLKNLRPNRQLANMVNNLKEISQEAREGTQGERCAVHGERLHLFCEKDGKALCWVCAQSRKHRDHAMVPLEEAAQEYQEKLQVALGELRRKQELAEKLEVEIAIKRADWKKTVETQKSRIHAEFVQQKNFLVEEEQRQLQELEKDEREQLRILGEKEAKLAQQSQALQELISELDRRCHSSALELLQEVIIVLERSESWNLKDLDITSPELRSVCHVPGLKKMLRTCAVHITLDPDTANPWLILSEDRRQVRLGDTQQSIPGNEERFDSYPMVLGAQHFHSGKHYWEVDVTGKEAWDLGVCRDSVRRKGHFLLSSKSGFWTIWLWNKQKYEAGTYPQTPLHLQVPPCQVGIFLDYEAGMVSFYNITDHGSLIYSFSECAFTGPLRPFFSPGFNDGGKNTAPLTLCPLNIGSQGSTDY

Test [2] deals with T2, USP18-Flag (human) (UniProt Q9UMW8).
T2 sequence: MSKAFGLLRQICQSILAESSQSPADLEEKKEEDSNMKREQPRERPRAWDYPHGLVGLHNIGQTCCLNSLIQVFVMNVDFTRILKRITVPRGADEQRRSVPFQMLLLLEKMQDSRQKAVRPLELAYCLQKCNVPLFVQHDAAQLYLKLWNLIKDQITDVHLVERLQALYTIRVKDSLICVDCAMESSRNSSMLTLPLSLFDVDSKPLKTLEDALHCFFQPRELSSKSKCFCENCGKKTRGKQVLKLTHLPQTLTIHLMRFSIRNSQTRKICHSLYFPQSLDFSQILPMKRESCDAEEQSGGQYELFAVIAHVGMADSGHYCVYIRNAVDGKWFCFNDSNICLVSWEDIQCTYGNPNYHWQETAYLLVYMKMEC

Test [3] addresses T1, TRIM29-Myc (human). The source holds these as a separate data set.
The target in test [4] is T2, USP18-Flag (human). The source holds these as a separate data set.

Read-outs that look alike come from different tables or passages of the source. These are yes or no findings as the source states them, for the method shown. In cells and extracts the contact can be indirect. These calls come from enrichment with a bait or labelling near it, and not all partners need be listed. Sequences can lack the tags named with a protein.

Turning to “TRIM21 (endogenous) (from UniProt P19474 1-475) (enzyme)”, the binding result in test [1] and in test [2] was “binds” each time.

B1: HERC5 (endogenous) (enzyme, UniProt Q9UII4 1-1024)
chain: MERRSRRKSRRNGRSTAGKAAATQPAKSPGAQLWLFPSAAGLHRALLRRVEVTRQLCCSPGRLAVLERGGAGVQVHQLLAGSGGARTPKCIKLGKNMKIHSVDQGAEHMLILSSDGKPFEYDNYSMKHLRFESILQEKKIIQITCGDYHSLALSKGGELFAWGQNLHGQLGVGRKFPSTTTPQIVEHLAGVPLAQISAGEAHSMALSMSGNIYSWGKNECGQLGLGHTESKDDPSLIEGLDNQKVEFVACGGSHSALLTQDGLLFTFGAGKHGQLGHNSTQNELRPCLVAELVGYRVTQIACGRWHTLAYVSDLGKVFSFGSGKDGQLGNGGTRDQLMPLPVKVSSSEELKLESHTSEKELIMIAGGNQSILLWIKKENSYVNLKRTIPTLNEGTVKRWIADVETKRWQSTKREIQEIFSSPACLTGSFLRKRRTTEMMPVYLDLNKARNIFKELTQKDWITNMITTCLKDNLLKRLPFHSPPQEALEIFFLLPECPMMHISNNWESLVVPFAKVVCKMSDQSSLVLEEYWATLQESTFSKLVQMFKTAVICQLDYWDESAEENGNVQALLEMLKKLHRVNQVKCQLPESIFQVDELLHRLNFFVEVCRRYLWKMTVDASENVQCCVIFSHFPFIFNNLSKIKLLHTDTLLKIESKKHKAYLRSAAIEEERESEFALRPTFDLTVRRNHLIEDVLNQLSQFENEDLRKELWVSFSGEIGYDLGGVKKEFFYCLFAEMIQPEYGMFMYPEGASCMWFPVKPKFEKKRYFFFGVLCGLSLFNCNVANLPFPLALFKKLLDQMPSLEDLKELSPDLGKNLQTLLDDEGDNFEEVFYIHFNVHWDRNDTNLIPNGSSITVNQTNKRDYVSKYINYIFNDSVKAVYEEFRRGFYKMCDEDIIKLFHPEELKDVIVGNTDYDWKTFEKNARYEPGYNSSHPTIVMFWKAFHKLTLEEKKKFLVFLTGTDRLQMKDLNNMKITFCCPESWNERDPIRALTCFSVLFLPKYSTMETVEEALQEAINNNRGFG
For B1, the binding entry in test [3] and in test [4] was “binds” in each case.

B2: TRIM29 (endogenous) (protein, UniProt Q14134 1-588)
chain: MEAADASRSNGSSPEARDARSPSGPSGSLENGTKADGKDAKTTNGHGGEAAEGKSLGSALKPGEGRSALFAGNEWRRPIIQFVESGDDKNSNYFSMDSMEGKRSPYAGLQLGAAKKPPVTFAEKGELRKSIFSESRKPTVSIMEPGETRRNSYPRADTGLFSRSKSGSEEVLCDSCIGNKQKAVKSCLVCQASFCELHLKPHLEGAAFRDHQLLEPIRDFEARKCPVHGKTMELFCQTDQTCICYLCMFQEHKNHSTVTVEEAKAEKETELSLQKEQLQLKIIEIEDEAEKWQKEKDRIKSFTTNEKAILEQNFRDLVRDLEKQKEEVRAALEQREQDAVDQVKVIMDALDERAKVLHEDKQTREQLHSISDSVLFLQEFGALMSNYSLPPPLPTYHVLLEGEGLGQSLGNFKDDLLNVCMRHVEKMCKADLSRNFIERNHMENGGDHRYVNNYTNSFGGEWSAPDTMKRYSMYLTPKGGVRTSYQPSSPGRFTKETTQKNFNNLYGTKGNYTSRVWEYSSSIQNSDNDLPVVQGSSSFSLKGYPSLMRSQSPKAQPQTWKSGKQTMLSHYRPFYVNKGNGIGSNEAP
Turning to B2, the binding result in test [4] is given as “binds”.

For the origin of these results see PMC13156314.
